The match of structure and compound is tentative.
Molecular target: RORC2 ligand binding domain (6-His-RORC2 LBD) (Homo sapiens, UniProt P51449)
Experiment: Co-activator recruitment by TR-FRET (RORC2 FRET)
Format: biochemical
Conditions: read-out: RORC2 FRET IC50, 6.3 nM RORC2 LBD, 200 nM SRC1-2 coactivator peptide, 3 hours room temperature

By UniProt entry, the sequences of proteins in these tests, tags left out. Residues count along the entry.
UniProt P51449, 269-508 limits assumed: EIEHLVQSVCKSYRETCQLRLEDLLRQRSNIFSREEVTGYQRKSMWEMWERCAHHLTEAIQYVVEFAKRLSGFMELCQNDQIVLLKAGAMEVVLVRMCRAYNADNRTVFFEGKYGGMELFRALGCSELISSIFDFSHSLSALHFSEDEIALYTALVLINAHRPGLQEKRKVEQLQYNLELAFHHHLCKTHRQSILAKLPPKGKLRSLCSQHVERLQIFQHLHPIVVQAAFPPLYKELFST

Question: Which IC50 does the source give for `N#Cc1cccc(CCC(=O)Nc2ccc3[nH]cc(C4CCN(C(=O)C5CCCC5)CC4)c3c2)c1` here?
Answer: 3.41 µM
